Measurements reported in PubChem BioAssay AID504764 (Drosophila RNAi Screening Center, 2011)

Aim: 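Genes whose knock-down alters Notch-dependent transcription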 (primary screen)
System: Drosophila Kc167 cells
Reagent: long dsRNA against Drosophila genes
Duration: about 5 days (4 days dsRNA, then 24 h after transfection)
Treatment: transfection of constitutively active membrane-tethered Notch lacking the extracellular domain, read 24 h later
Read-out: 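Light from a Notch-responsive E(spl)m3 luciferase reporter under active Notch, with control-promoter and no-Notch reporter wells to normalise; raw counts from paired wells a and b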
Reading the numbers: induced reporter light, run 1, well a and induced reporter light, run 1, well b: higher = more light from the Notch target reporter with active Notch; control promoter light, run 1, well a and control promoter light, run 1, well b: higher = more light from the viral control promoter (cell number, transfection, viability); uninduced reporter light, run 1, well a: higher = more light from the Notch target reporter without active Notch
Call rule: 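Wells with low control signal or poorly matching duplicates excluded; duplicates averaged; per source plate, z beyond ±2 for induced/control log2 ratio or beyond ±1.8 for induced/uninduced marks a hit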
Meaning of the calls: active = modifier hit (raised or lowered Notch signal); inactive = not a hit
The screen tested about 22,000 reagents; shown is a random part of those that have a named target and a result. Of all reagents, 403 (1.9%) were called active. 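Unnormalised raw counts per well; ratio z-scores behind the hit calls and whether each hit raises or lowers signal are not deposited.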 A plus sign joins genes that one reagent is predicted to hit. The record does not give: the amount of reagent.

target gene | dsRNA | induced reporter light, run 1, well a | induced reporter light, run 1, well b | control promoter light, run 1, well a | control promoter light, run 1, well b | uninduced reporter light, run 1, well a | call
Pss | DRSC11757 | 1.23e5 | 1.06e5 | 93030 | 1.07e5 | 7015 | inactive
CG31835 + CG42585 | DRSC01412 | 96230 | 1.02e5 | 1.43e5 | 1.27e5 | 10740 | inactive
CG5217 | DRSC15740 | 1.98e5 | 1.75e5 | 2.25e5 | 2.31e5 | 13528 | inactive
TAF1C-like | DRSC04073 | 1.75e5 | 1.54e5 | 1.22e5 | 1.30e5 | 11720 | inactive
CG10321 | DRSC04061 | 1.78e5 | 1.89e5 | 3.28e5 | 2.97e5 | 13690 | inactive
hdly | DRSC15849 | 2.09e5 | 1.59e5 | 2.14e5 | 2.11e5 | 13740 | inactive
CG11964 | DRSC14447 | 1.39e5 | 1.46e5 | 97155 | 76930 | 10040 | inactive
nerfin-1 | DRSC08729 | 1.46e5 | 1.32e5 | 1.97e5 | 2.12e5 | 6705 | inactive
ewg | DRSC18773 | 1.25e5 | 1.10e5 | 2.58e5 | 2.24e5 | 7610 | inactive
RhoGEF4 | DRSC11011 | 74815 | 85205 | 78180 | 22920 | 9245 | inactive
CG11807 | DRSC06087 | 60330 | 1.17e5 | 1.56e5 | 2.50e5 | 11460 | inactive
Pxd | DRSC16805 | 2.76e5 | 3.09e5 | 3.19e5 | 3.35e5 | 23278 | inactive
Dop2R | DRSC20683 | 80225 | 99735 | 1.08e5 | 1.28e5 | 9200 | inactive
Dop2R | DRSC20686 | 1.04e5 | 85940 | 93605 | 97405 | 10665 | inactive
Obp83b | DRSC12360 | 90585 | 95555 | 79950 | 64605 | 5410 | inactive
CG34426 | DRSC09977 | 2.56e5 | 2.17e5 | 2.55e5 | 2.30e5 | 15755 | inactive
Jupiter | DRSC15204 | 1.33e5 | 1.24e5 | 1.20e5 | 1.27e5 | 8290 | inactive
Jupiter | DRSC15205 | 91290 | 82695 | 85175 | 46395 | 5055 | inactive
Jupiter | DRSC15389 | 99430 | 81715 | 1.06e5 | 72410 | 4110 | inactive
cpo | DRSC13265 | 81025 | 71085 | 1.12e5 | 78390 | 12165 | inactive
Pgant2 | DRSC00587 | 64730 | 48485 | 69845 | 56105 | 3895 | inactive
CG10651 | DRSC02086 | 79205 | 40920 | 44750 | 76585 | 2610 | inactive
Cdc6 | DRSC10563 | 97035 | 83310 | 64405 | 20600 | 8170 | inactive
Ndg | DRSC06223 | 96660 | 85760 | 62025 | 71775 | 6680 | inactive
ClpX | DRSC15592 | 1.07e5 | 1.16e5 | 92750 | 89385 | 6635 | active
CG10597 | DRSC19357 | 83725 | 71155 | 1.21e5 | 89340 | 13385 | inactive
CG7079 | DRSC16192 | 2.01e5 | 1.61e5 | 1.61e5 | 1.69e5 | 10235 | inactive

7 consecutive records from above, for reference:
target gene | dsRNA | induced reporter light, run 1, well a | induced reporter light, run 1, well b | control promoter light, run 1, well a | control promoter light, run 1, well b | uninduced reporter light, run 1, well a | call
RhoGEF4 | DRSC11011 | 74815 | 85205 | 78180 | 22920 | 9245 | inactive
CG11807 | DRSC06087 | 60330 | 1.17e5 | 1.56e5 | 2.50e5 | 11460 | inactive
Pxd | DRSC16805 | 2.76e5 | 3.09e5 | 3.19e5 | 3.35e5 | 23278 | inactive
Dop2R | DRSC20683 | 80225 | 99735 | 1.08e5 | 1.28e5 | 9200 | inactive
Dop2R | DRSC20686 | 1.04e5 | 85940 | 93605 | 97405 | 10665 | inactive
Obp83b | DRSC12360 | 90585 | 95555 | 79950 | 64605 | 5410 | inactive
CG34426 | DRSC09977 | 2.56e5 | 2.17e5 | 2.55e5 | 2.30e5 | 15755 | inactive

Continued:
target gene | dsRNA | induced reporter light, run 1, well a | induced reporter light, run 1, well b | control promoter light, run 1, well a | control promoter light, run 1, well b | uninduced reporter light, run 1, well a | call
CG14650 | DRSC12236 | 1.38e5 | 1.35e5 | 1.14e5 | 1.16e5 | 9735 | inactive
Smu1 | DRSC15803 | 92085 | 1.28e5 | 1.20e5 | 1.09e5 | 7785 | inactive
CG14891 | DRSC15013 | 1.40e5 | 1.62e5 | 2.00e5 | 2.21e5 | 11080 | inactive
Arl6IP1 | DRSC14231 | 2.66e5 | 2.49e5 | 2.52e5 | 2.66e5 | 20155 | inactive
RpS24 | DRSC04414 | 79875 | 95415 | 97795 | 94305 | 5930 | inactive
CG9664 | DRSC00725 | 1.64e5 | 2.16e5 | 2.10e5 | 1.71e5 | 17760 | inactive
CG5445 | DRSC19943 | 21030 | 21315 | 18175 | 18465 | 4255 | inactive
CG3894 | DRSC01762 | 78750 | 67320 | 72150 | 94780 | 7685 | inactive
CG3894 | DRSC04012 | 1.77e5 | 1.99e5 | 3.00e5 | 3.13e5 | 12005 | inactive
CG3894 | DRSC04429 | 2.04e5 | 2.15e5 | 1.88e5 | 2.09e5 | 12485 | inactive
MFS10 | DRSC19888 | 1.76e5 | 1.89e5 | 2.56e5 | 2.04e5 | 11125 | inactive
CG12106 | DRSC17805 | 1.59e5 | 1.77e5 | 2.39e5 | 2.10e5 | 15232 | inactive
Poxn | DRSC05589 | 1.76e5 | 1.72e5 | 2.22e5 | 2.39e5 | 16315 | inactive
Poxn | DRSC07512 | 96540 | 1.21e5 | 1.44e5 | 1.72e5 | 10210 | inactive
cmb | DRSC09790 | 82510 | 71430 | 98610 | 1.03e5 | 4630 | inactive
CG31534 (retired record) | DRSC12141 | 1.03e5 | 1.41e5 | 73630 | 94020 | 10540 | inactive
CG31534 (retired record) | DRSC12289 | 34710 | 38560 | 43610 | 35865 | 3010 | inactive
CG9346 | DRSC04542 | 72885 | 68515 | 45415 | 49565 | 4565 | inactive
CG12909 | DRSC06224 | 1.25e5 | 1.36e5 | 1.39e5 | 1.59e5 | 9870 | inactive
Liprin-alpha | DRSC02132 | 1.72e5 | 1.43e5 | 1.79e5 | 1.78e5 | 16050 | inactive
CG32650 | DRSC19899 | 1.77e5 | 1.54e5 | 2.39e5 | 2.31e5 | 14555 | inactive
Vha68-1 | DRSC03470 | 1.71e5 | 1.74e5 | 1.75e5 | 1.86e5 | 15125 | inactive
CG7631 | DRSC01873 | 1.20e5 | 1.46e5 | 1.34e5 | 1.42e5 | 10690 | inactive
